These are yes or no findings as the source states them, for the method shown. Binding seen in cells or lysates may run through a third protein. A yes stands for co-enrichment or nearness to the bait. Other partners may have been found.

Protein sequences, listed by entry. Tags and fused reporters are not part of them.
UniProt Q9CW03: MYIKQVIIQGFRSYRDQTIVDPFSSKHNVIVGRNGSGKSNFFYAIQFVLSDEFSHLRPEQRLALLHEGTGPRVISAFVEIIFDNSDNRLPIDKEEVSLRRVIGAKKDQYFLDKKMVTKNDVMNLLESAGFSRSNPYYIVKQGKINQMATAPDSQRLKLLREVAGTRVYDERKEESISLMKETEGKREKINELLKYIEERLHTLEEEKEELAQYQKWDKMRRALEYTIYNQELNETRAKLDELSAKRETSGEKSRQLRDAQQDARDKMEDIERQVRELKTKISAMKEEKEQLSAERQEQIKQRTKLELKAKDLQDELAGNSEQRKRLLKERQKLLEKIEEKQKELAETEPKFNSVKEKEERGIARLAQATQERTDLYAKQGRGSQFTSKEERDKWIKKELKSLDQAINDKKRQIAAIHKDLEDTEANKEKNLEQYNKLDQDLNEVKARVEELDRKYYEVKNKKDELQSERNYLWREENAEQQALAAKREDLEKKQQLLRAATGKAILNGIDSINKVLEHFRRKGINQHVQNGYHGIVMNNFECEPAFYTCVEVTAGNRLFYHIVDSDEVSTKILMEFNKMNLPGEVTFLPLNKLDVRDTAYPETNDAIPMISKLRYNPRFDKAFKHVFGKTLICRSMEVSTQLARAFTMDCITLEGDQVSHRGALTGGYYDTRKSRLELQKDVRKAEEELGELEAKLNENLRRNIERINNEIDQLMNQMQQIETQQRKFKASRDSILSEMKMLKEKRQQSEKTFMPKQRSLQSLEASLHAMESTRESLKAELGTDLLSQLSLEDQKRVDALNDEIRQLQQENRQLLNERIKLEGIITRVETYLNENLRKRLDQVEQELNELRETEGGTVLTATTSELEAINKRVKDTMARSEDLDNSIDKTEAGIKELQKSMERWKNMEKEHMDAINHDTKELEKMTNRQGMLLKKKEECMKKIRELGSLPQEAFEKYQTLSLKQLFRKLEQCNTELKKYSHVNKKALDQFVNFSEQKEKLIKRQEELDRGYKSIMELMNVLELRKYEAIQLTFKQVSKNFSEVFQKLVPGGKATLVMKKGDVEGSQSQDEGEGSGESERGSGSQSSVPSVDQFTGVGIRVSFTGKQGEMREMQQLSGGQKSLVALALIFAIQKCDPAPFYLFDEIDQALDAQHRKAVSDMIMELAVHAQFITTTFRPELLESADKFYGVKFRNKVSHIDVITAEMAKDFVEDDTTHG

The experiment has as its target SETDB1 (endogenous, E14 mESC) (mouse (endogenous in E14 mESC)) (UniProt O88974). Briefly: affinity purification with mass spectrometry.

Regarding “SMC3 (endogenous, E14 mESC) (from UniProt Q9CW03 1-1217)”, the binding entry was “binds”.

B1: SMC1A (endogenous, E14 mESC) (protein, UniProt Q9CU62 1-1233)
chain: MGFLKLIEIENFKSYKGRQIIGPFQRFTAIIGPNGSGKSNLMDAISFVLGEKTSNLRVKTLRDLIHGAPVGKPAANRAFVSMVYSEEGAEDRTFARVIVGGSSEYKINNKVVQLHEYSEELEKLGILIKARNFLVFQGAVESIAMKNPKERTALFEEISRSGELAQEYDKRKKEMVKAEEDTQFNYHRKKNIAAERKEAKQEKEEADRYQRLKDEVVRAQVQLQLFKLYHNEVEIEKLNKELASKNKEIEKDKKRMDKVEDELKEKKKELGKMMREQQQIEKEIKEKDSELNQKRPQYIKAKENTSHKIKKLEAAKKSLQNAQKHYKKRKGDMDELEKEMLSVEKARQEFEERMEEESQSQGRDLTLEENQVKKYHRLKEEASKRAATLAQELEKFNRDQKADQDRLDLEERKKVETEAKIKQKLREIEENQKRIEKLEEYITTSKQSLEEQKKLEGELTEEVEMAKRRIDEINKELNQVMEQLGDARIDRQESSRQQRKAEIMESIKRLYPGSVYGRLIDLCQPTQKKYQIAVTKVLGKNMDAIIVDSEKTGRDCIQYIKEQRGEPETFLPLDYLEVKPTDEKLRELKGAKLVIDVIRYEPPHIKKALQYACGNALVCDNVEDARRIAFGGHQRHKTVALDGTLFQKSGVISGGASDLKAKARRWDEKAVDKLKEKKERLTEELKEQMKAKRKEAELRQVQSQAHGLQMRLKYSQSDLEQTKTRHLALNLQEKSKLESELANFGPRINDIKRIIQSREREMKDLKEKMNQVEDEVFEEFCREIGVRNIREFEEEKVKRQNEIAKKRLEFENQKTRLGIQLDFEKNQLKEDQDKVHMWEQTVKKDENEIEKLKKEEQRHMKIIDETMAQLQDLKNQHLAKKSEVNDKNHEMEEIRKKLGGANKEMTHLQKEVTAIETKLEQKRSDRHNLLQACKMQDIKLPLSKGTMDDISQEEGSSQGEESVSGSQRTSSIYAREALIEIDYGDLCEDLKDAQAEEEIKQEMNTLQQKLNEQQSVLQRIAAPNMKAMEKLESVRDKFQETSDEFEAARKRAKKAKQAFEQIKKERFDRFNACFESVATNIDEIYKALSRNSSAQAFLGPENPEEPYLDGINYNCVAPGKRFRPMDNLSGGEKTVAALALLFAIHSYKPAPFFVLDEIDAALDNTNIGKVANYIKEQSTCNFQAIVISLKEEFYTKAESLIGVYPEQGDCVISKVLTFDLTKYPDANPNPNEQ
In the case of B1, the binding entry is reported as “binds”.

(Values after paper doi:10.1101/2022.01.27.478011.)
